Measurements reported in PubChem BioAssay AID1508597 (Cure First, 2020).

- Test: 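Knock-downs altering ovarian cancer cell survival with or without PARP inhibitor rucaparib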 (primary screen)
- Cell system: human ovarian carcinoma lines grown from tumours: OCI-P5x (papillary serous) and OCI-C5x (clear cell)
- Knock-down reagent: siRNA pool against human genes, 1.25 pmol siRNA per well
- Timing: 72 h or 96 h, depending on the cell culture
- Conditions: rucaparib 20 µM (about IC30) or vehicle, present until read-out
- Detection: 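Luminescent ATP-based viability assay read 72 or 96 h after transfection, depending on culture, given as normalised percent viability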
- Reading the numbers: viability, normalised: higher = more viable cells remaining
- Call rule: 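a well counts as a hit if its normalised viability is under 80 percent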
- Calls: active = viability under 80%; inactive = viability 80% or more
The deposit covers about 2,100 reagents; this is a part drawn at random. 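Calls flag viability under 80% in either arm, not effects specific to rucaparib; the reference for percent is not stated.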 Unmarked entries are inactive. Not stated in the record: the 100% reference.

ASF1A, rucaparib or vehicle Rucaparib, cell line OCI-C5x (clear cell), technical replicate 1 scored viability, normalised (%) = 56.7 (active).
For ASF1A, rucaparib or vehicle Rucaparib, cell line OCI-C5x (clear cell), technical replicate 2, the entry reads viability, normalised (%) = 64.4 (active).
ASF1A, rucaparib or vehicle Rucaparib, cell line OCI-C5x (clear cell), technical replicate 3 scored viability, normalised (%) = 40.9 (active).
For ASF1A, rucaparib or vehicle Rucaparib, cell line OCI-P5x (serous), technical replicate 1 the deposit lists viability, normalised (%) = 72.8 (active).
ASF1A, rucaparib or vehicle Rucaparib, cell line OCI-P5x (serous), technical replicate 2 scored viability, normalised (%) = 96.
ASF1A, rucaparib or vehicle Rucaparib, cell line OCI-P5x (serous), technical replicate 3 scored viability, normalised (%) = 88.5.
With ASF1A, rucaparib or vehicle Vehicle, cell line OCI-C5x (clear cell), technical replicate 1, the entry reads viability, normalised (%) = 37.9 (active).
For ASF1A, rucaparib or vehicle Vehicle, cell line OCI-C5x (clear cell), technical replicate 2, the values are viability, normalised (%) = 37.6 (active).
ASF1A, rucaparib or vehicle Vehicle, cell line OCI-C5x (clear cell), technical replicate 3 gave viability, normalised (%) = 44.3 (active).
ASF1A, rucaparib or vehicle Vehicle, cell line OCI-P5x (serous), technical replicate 1 gave viability, normalised (%) = 68.3 (active).
With ASF1A, rucaparib or vehicle Vehicle, cell line OCI-P5x (serous), technical replicate 2, the entry reads viability, normalised (%) = 77.4 (active).
With ASF1A, rucaparib or vehicle Vehicle, cell line OCI-P5x (serous), technical replicate 3, the values are viability, normalised (%) = 76.8 (active).
IPMK, rucaparib or vehicle Rucaparib, cell line OCI-C5x (clear cell), technical replicate 1 scored viability, normalised (%) = 52.4 (active).
With IPMK, rucaparib or vehicle Rucaparib, cell line OCI-C5x (clear cell), technical replicate 2, the values are viability, normalised (%) = 59.9 (active).
For IPMK, rucaparib or vehicle Rucaparib, cell line OCI-C5x (clear cell), technical replicate 3, the values are viability, normalised (%) = 57 (active).
For IPMK, rucaparib or vehicle Rucaparib, cell line OCI-P5x (serous), technical replicate 1, the entry reads viability, normalised (%) = 77.6 (active).
With IPMK, rucaparib or vehicle Rucaparib, cell line OCI-P5x (serous), technical replicate 2, the entry reads viability, normalised (%) = 63.8 (active).
IPMK, rucaparib or vehicle Rucaparib, cell line OCI-P5x (serous), technical replicate 3 scored viability, normalised (%) = 76.7 (active).
IPMK, rucaparib or vehicle Vehicle, cell line OCI-C5x (clear cell), technical replicate 1 scored viability, normalised (%) = 98.6.
IPMK, rucaparib or vehicle Vehicle, cell line OCI-C5x (clear cell), technical replicate 2 scored viability, normalised (%) = 52.2 (active).
With IPMK, rucaparib or vehicle Vehicle, cell line OCI-C5x (clear cell), technical replicate 3 the deposit lists viability, normalised (%) = 62.4 (active).
IPMK, rucaparib or vehicle Vehicle, cell line OCI-P5x (serous), technical replicate 1 gave viability, normalised (%) = 74.9 (active).
With IPMK, rucaparib or vehicle Vehicle, cell line OCI-P5x (serous), technical replicate 2, the values are viability, normalised (%) = 72.8 (active).
IPMK, rucaparib or vehicle Vehicle, cell line OCI-P5x (serous), technical replicate 3 scored viability, normalised (%) = 70.2 (active).
DCLRE1B, rucaparib or vehicle Rucaparib, cell line OCI-C5x (clear cell), technical replicate 1 scored viability, normalised (%) = 50.3 (active).
For DCLRE1B, rucaparib or vehicle Rucaparib, cell line OCI-C5x (clear cell), technical replicate 2, the entry reads viability, normalised (%) = 34.9 (active).
With DCLRE1B, rucaparib or vehicle Rucaparib, cell line OCI-C5x (clear cell), technical replicate 3 the deposit lists viability, normalised (%) = 42.2 (active).
For DCLRE1B, rucaparib or vehicle Rucaparib, cell line OCI-P5x (serous), technical replicate 1 the deposit lists viability, normalised (%) = 68.8 (active).
With DCLRE1B, rucaparib or vehicle Rucaparib, cell line OCI-P5x (serous), technical replicate 2, the values are viability, normalised (%) = 52.2 (active).
With DCLRE1B, rucaparib or vehicle Rucaparib, cell line OCI-P5x (serous), technical replicate 3, the entry reads viability, normalised (%) = 32.2 (active).
DCLRE1B, rucaparib or vehicle Vehicle, cell line OCI-C5x (clear cell), technical replicate 1 gave viability, normalised (%) = 32.7 (active).
DCLRE1B, rucaparib or vehicle Vehicle, cell line OCI-C5x (clear cell), technical replicate 2 scored viability, normalised (%) = 38.3 (active).
For DCLRE1B, rucaparib or vehicle Vehicle, cell line OCI-C5x (clear cell), technical replicate 3, the values are viability, normalised (%) = 35.6 (active).
For DCLRE1B, rucaparib or vehicle Vehicle, cell line OCI-P5x (serous), technical replicate 1, the entry reads viability, normalised (%) = 52 (active).
For DCLRE1B, rucaparib or vehicle Vehicle, cell line OCI-P5x (serous), technical replicate 2 the deposit lists viability, normalised (%) = 44.5 (active).
With DCLRE1B, rucaparib or vehicle Vehicle, cell line OCI-P5x (serous), technical replicate 3 the deposit lists viability, normalised (%) = 40.7 (active).
